Measured values as given in patent US20250092088A1 (CHUBU UNIVERSITY EDUCATIONAL FOUNDATION, priority 2022, published 2025).

Assay: Fmoc solid-phase peptide synthesis; Fmoc-AA-SNp (p-nitrophenyl thioester)
Conditions: whole synthesis

H-Thr(t-Bu)-Lys(Boc)-Pro-Val-Lys(Boc)-Pro-Lys(Boc)-Lys(Boc)-Val-Ala-O-TAG2
isolated yield: 78%
